Assay results reported in PubChem BioAssay AID1487 (National Center for Advancing Translational Sciences (NCATS), 2009).
Some of the results follow. Shown are side measurements of this screen, not its main read-out; they come without a call. Most of these compounds were active or inconclusive in the main read-out, so they are no random draw. The note in brackets gives the kind of curve behind each potency; many fits are weak.

Test: qHTS Assay for Modulators of Lamin A Splicing
Settings: HeLa LMNA splicing GFP/RFP minigene ratio, 48 h
Procedure, shortened: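 S3 HeLa stable clones carrying a lamin A-EGFP splicing minigene plus DsRed2 were seeded at 600 cells/well in Opti-MEM with 2% FBS, pin-dosed and incubated 48 h at 37°C. Acumen cytometry (488 nm) gave the GFP/RFP total-intensity ratio.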

[1] = measured here: GFP splicing reporter channel
[2] = measured here: RFP viability control channel

Question: Which AC50 [1] does the source give for `O=C(CC(Nc1ccc(F)cc1)c1ccccc1)c1ccccc1` (centres undefined) here?
Answer: Its AC50 is 28.2 µM [falling, single point].

Question: With `CN1/C(=c2/s/c(=C3/C(=O)N(c4ccccc4)NC3=Nc3ccccc3)n(C)c2=O)C(C)(C)c2ccccc21` as the compound, how does the AC50 [2] read?
Answer: The AC50 was 17.8 µM [rising, partial curve].

Question: Which AC50 [2] does the source give for `COc1cc(NS(=O)(=O)c2ccc(C)cc2C)cc(OC)c1OC` here?
Answer: Its AC50 is 6.31 µM [rising, full curve].

Question: With `CCCCN(CC)CCCNC(=O)c1ccc2c(c1)NC(=O)CN2C` as the compound, how does the AC50 [1] read?
Answer: Its AC50 is 0.0282 µM [falling, full curve, poor fit].

Question: For `CCOC(=O)c1noc2ncn(CC(=O)Nc3ccccc3OC)c(=O)c12`, which AC50 [1] is on record?
Answer: The AC50 was 0.126 µM [falling, partial curve].

Question: Which AC50 [1] does the source give for `COC(=O)c1cc2nc(-c3ccc(OC)c(OC)c3)cc(C(F)(F)F)n2n1` here?
Answer: Its AC50 is 12.6 µM [rising, single point].

Question: With `CCCCOc1ccc(-c2nnn(CC(=O)Nc3ncc(CC(=O)OCC)s3)n2)cc1` as the compound, how does the AC50 [1] read?
Answer: The AC50 was 35.5 µM [falling, single point].

Question: Which results are given for `COc1ccc(C(=O)NC(=S)Nc2ccccc2N2CCOCC2)cc1[N+](=O)[O-]`?
Answer: AC50 [1]: 1.26 µM [rising, partial curve]; AC50 [2]: 1.78 µM [rising, partial curve]

Question: For `CC(C)CCn1c(SCc2cccc(F)c2)nc2ccsc2c1=O`, which AC50 [1] is on record?
Answer: Its AC50 is 35.5 µM [rising, single point].

Question: For `Cn1cc(-c2cc3n(n2)CCC(=O)N3CCCC(=O)NCc2ccccc2Cl)c2ccccc21`, which AC50 [1] is on record?
Answer: Its AC50 is 0.00316 µM [falling, full curve, poor fit].

Question: For `CC1CCc2nc(NC(=O)CN3CCN(c4ccc(F)cc4)CC3)sc2C1` (centres undefined), which AC50 [1] is on record?
Answer: The AC50 was 20 µM [rising, partial curve].

Question: What about the AC50 [2] of the same compound?
Answer: Its AC50 is 12.6 µM [rising, single point].

Question: With `COc1ccccc1OC[C@H](O)COC(N)=O` as the compound, how does the AC50 [1] read?
Answer: Its AC50 is 1 µM [falling, full curve, poor fit].

Question: What about the AC50 [2] of the same compound?
Answer: The AC50 was 1 µM [falling, full curve, poor fit].

Question: Which AC50 [1] does the source give for `CNc1sc(C(=O)c2ccccc2F)c(N)c1-c1nc2ccccc2s1` here?
Answer: Its AC50 is 12.6 µM [rising, partial curve].

Question: And the AC50 [2]?
Answer: Its AC50 is 22.4 µM [rising, single point].

Question: For `O=C(CSCc1c(Cl)cccc1Cl)Nc1ccc2c(c1)OCCO2`, which AC50 [2] is on record?
Answer: Its AC50 is 20 µM [rising, single point].

Question: With `O=C(NCC1CCCO1)C(=Cc1cccc([N+](=O)[O-])c1)C(=O)NCC1CCCO1` (centres undefined) as the compound, how does the AC50 [1] read?
Answer: Its AC50 is 1.41 µM [rising, full curve, poor fit].

Question: And the AC50 [2]?
Answer: The AC50 was 14.1 µM [rising, partial curve].

Question: With `CCOC(=O)Cc1csc(SCn2nnc3ccccc3c2=O)n1` as the compound, how does the AC50 [2] read?
Answer: The AC50 was 2.82 µM [rising, partial curve].

Question: For `CC(=O)Nc1cc(C(=O)N(C)Cc2ccco2)ccc1Sc1ccc(Cl)cc1`, which AC50 [2] is on record?
Answer: Its AC50 is 35.5 µM [rising, single point].

Question: With `COc1ccccc1C(=O)Nc1nc(-c2ccc3c(c2)OCCO3)cs1` as the compound, how does the AC50 [1] read?
Answer: Its AC50 is 1.26 µM [rising, partial curve].

Question: With `CCN1CCN(c2cc(SC(C)C)nc(-c3ccc(OC)cc3)n2)CC1` as the compound, how does the AC50 [1] read?
Answer: Its AC50 is 35.5 µM [falling, single point].

Question: And the AC50 [2]?
Answer: The AC50 was 35.5 µM [falling, single point].

Question: What does the source list for `Cc1[nH]n2c(=O)cc(C(C)C)nc2c1-c1ccccc1`?
Answer: AC50 [1]: 35.5 µM [rising, single point]; AC50 [2]: 35.5 µM [rising, single point]

Question: For `Cc1cc(Cl)ccc1NC(=O)CCS(=O)(=O)c1cc2c(cc1C)NC(=O)CO2`, which AC50 [2] is on record?
Answer: Its AC50 is 0.891 µM [falling, single point].

Question: With `Cc1ccc2[nH]cc(CCCN3C(=O)c4ccccc4C3=O)c2c1` as the compound, how does the AC50 [2] read?
Answer: Its AC50 is 22.4 µM [rising, partial curve, poor fit].

Question: What does the source list for `O=C(CSc1ncnc2scc(-c3ccc(F)cc3)c12)c1ccc2c(c1)OCCO2`?
Answer: AC50 [1]: 2 µM [rising, single point]; AC50 [2]: 11.2 µM [rising, partial curve]

Question: Which results are given for `Cc1ccc(NC2=CC(=O)C(=O)c3ccccc32)cc1`?
Answer: AC50 [1]: 35.5 µM [falling, single point]; AC50 [2]: 35.5 µM [falling, single point]

Question: Which results are given for `Fc1ccccc1Cn1nnc2c(-n3ccnc3)ncnc21`?
Answer: AC50 [1]: 14.1 µM [rising, single point]; AC50 [2]: 5.01 µM [rising, partial curve]

Question: For `CNc1ncc(Cc2ccccc2)s1`, which AC50 [2] is on record?
Answer: Its AC50 is 0.0158 µM [rising, full curve, poor fit].

Question: With `COc1ccc(-c2[nH]ncc2/C=N\NS(=O)(=O)c2ccc(Cl)cc2)cc1` as the compound, how does the AC50 [2] read?
Answer: Its AC50 is 17.8 µM [rising, single point].

Question: Which results are given for `O=C(CSc1ccc(Br)cc1)Nc1ccccc1Oc1ccccc1`?
Answer: AC50 [1]: 0.0178 µM [falling, full curve, poor fit]; AC50 [2]: 2.24 µM [falling, partial curve]

Question: For `CS(=O)(=O)c1sc(C#N)c2c1C(=O)CC(c1ccccc1)C2` (centres undefined), which AC50 [1] is on record?
Answer: Its AC50 is 7.94 µM [falling, partial curve].

Question: And the AC50 [2]?
Answer: Its AC50 is 7.94 µM [falling, partial curve].

Question: For `O=C(CN1CCC(O)(c2ccccc2)CC1)Nc1ccc2c(c1)OCCO2`, which AC50 [1] is on record?
Answer: Its AC50 is 0.00282 µM [falling, full curve, poor fit].

Question: Which AC50 [1] does the source give for `O=c1cc(-c2ccccc2Cl)oc2cc(O)cc(O)c12` here?
Answer: The AC50 was 0.0891 µM [falling, full curve, poor fit].

Question: Which AC50 [1] does the source give for `COc1ccccc1NC(=S)N(CCCN1CCOCC1)Cc1cn(C)c2ccccc12` here?
Answer: The AC50 was 14.1 µM [rising, single point].

Question: What about the AC50 [2] of the same compound?
Answer: The AC50 was 22.4 µM [rising, single point].

Question: For `CCOC(=O)c1c(NC(=S)NCCc2ccccc2)sc2c1CC(C(C)C)OC2` (centres undefined), which AC50 [2] is on record?
Answer: Its AC50 is 5.62 µM [rising, single point].

Question: With `CCCOc1cccc(OCC(=O)Nc2nc3ccccc3[nH]2)c1` as the compound, how does the AC50 [1] read?
Answer: Its AC50 is 20 µM [rising, single point].

Question: For `COc1ccc(NC(=O)CSc2nc3ccsc3c(=O)n2CCCCCC(=O)O)cc1`, which AC50 [1] is on record?
Answer: Its AC50 is 2.24 µM [rising, partial curve, poor fit].

Question: For `Cc1ccc(N(CN2CCCC2=O)C(=O)c2ccccc2)cc1`, which AC50 [1] is on record?
Answer: Its AC50 is 4.47 µM [falling, single point].
